The list shows a part of the results.

Sequences of proteins named here, by UniProt entry; tags and fusion partners are left off. A change or cut given only in a name is not applied to a line headed by its entry.
UniProt Q9C004: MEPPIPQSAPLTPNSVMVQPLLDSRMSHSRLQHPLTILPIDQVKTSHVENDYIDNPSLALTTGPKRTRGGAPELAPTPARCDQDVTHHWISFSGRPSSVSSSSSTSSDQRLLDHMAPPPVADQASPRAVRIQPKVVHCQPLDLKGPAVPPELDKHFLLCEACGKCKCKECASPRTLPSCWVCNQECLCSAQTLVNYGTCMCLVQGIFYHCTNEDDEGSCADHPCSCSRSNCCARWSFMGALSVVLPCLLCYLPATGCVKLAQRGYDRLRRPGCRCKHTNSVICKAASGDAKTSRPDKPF
UniProt Q9BXP5: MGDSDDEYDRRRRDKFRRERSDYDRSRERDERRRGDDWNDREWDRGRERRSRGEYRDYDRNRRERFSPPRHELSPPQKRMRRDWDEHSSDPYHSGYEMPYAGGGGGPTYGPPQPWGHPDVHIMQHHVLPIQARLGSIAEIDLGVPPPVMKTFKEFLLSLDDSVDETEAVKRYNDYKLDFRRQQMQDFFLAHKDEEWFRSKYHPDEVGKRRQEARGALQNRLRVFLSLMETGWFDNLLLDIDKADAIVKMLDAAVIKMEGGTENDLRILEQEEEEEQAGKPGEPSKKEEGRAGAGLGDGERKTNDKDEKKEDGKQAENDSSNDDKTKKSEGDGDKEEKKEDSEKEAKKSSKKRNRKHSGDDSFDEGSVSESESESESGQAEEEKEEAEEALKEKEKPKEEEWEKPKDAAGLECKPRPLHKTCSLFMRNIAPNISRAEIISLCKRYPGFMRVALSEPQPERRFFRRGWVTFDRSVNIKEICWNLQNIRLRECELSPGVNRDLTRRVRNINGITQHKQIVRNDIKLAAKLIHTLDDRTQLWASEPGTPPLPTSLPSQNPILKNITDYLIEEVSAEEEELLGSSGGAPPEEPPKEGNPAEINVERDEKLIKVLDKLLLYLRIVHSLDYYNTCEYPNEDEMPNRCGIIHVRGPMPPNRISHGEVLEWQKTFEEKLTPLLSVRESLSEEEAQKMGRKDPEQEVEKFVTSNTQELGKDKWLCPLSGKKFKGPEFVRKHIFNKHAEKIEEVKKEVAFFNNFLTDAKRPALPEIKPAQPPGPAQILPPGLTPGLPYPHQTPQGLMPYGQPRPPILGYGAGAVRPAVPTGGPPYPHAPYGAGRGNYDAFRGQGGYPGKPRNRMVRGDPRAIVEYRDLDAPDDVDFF
UniProt P61009: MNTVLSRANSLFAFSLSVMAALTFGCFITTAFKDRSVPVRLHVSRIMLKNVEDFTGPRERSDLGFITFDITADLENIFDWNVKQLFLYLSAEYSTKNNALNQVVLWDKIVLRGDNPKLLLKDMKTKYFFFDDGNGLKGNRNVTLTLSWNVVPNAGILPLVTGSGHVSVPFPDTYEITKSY
UniProt Q9NSC7: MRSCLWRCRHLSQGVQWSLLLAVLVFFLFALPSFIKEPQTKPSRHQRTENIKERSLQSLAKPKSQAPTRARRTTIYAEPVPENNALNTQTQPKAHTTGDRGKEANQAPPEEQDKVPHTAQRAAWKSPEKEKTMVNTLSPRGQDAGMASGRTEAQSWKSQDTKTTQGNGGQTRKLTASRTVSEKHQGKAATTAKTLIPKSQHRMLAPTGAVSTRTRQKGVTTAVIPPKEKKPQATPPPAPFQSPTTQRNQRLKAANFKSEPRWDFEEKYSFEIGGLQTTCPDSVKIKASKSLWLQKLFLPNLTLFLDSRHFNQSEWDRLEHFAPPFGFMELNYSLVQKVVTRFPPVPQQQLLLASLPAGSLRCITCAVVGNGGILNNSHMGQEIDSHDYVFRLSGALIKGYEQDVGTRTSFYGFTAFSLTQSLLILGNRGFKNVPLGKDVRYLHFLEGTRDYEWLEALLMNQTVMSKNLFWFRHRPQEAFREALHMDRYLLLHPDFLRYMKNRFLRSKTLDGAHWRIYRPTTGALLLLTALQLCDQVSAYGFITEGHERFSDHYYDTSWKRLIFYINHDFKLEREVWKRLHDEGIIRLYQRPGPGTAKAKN
UniProt O95793: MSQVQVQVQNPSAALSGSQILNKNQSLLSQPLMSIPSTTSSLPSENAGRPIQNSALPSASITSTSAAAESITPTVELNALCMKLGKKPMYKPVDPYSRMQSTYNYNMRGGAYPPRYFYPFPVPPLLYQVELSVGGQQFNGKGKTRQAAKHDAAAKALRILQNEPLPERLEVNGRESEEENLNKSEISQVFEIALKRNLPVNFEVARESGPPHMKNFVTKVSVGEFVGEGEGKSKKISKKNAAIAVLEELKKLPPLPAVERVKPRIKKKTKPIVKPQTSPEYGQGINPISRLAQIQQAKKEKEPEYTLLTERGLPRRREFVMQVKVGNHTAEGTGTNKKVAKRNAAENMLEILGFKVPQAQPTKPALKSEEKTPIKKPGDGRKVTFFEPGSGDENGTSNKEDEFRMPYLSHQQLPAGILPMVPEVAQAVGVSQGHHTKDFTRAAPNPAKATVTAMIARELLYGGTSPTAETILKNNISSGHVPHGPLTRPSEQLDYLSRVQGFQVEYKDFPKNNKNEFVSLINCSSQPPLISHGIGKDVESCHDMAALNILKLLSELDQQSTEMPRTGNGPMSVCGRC
UniProt Q9Y657, whole entry, looked up: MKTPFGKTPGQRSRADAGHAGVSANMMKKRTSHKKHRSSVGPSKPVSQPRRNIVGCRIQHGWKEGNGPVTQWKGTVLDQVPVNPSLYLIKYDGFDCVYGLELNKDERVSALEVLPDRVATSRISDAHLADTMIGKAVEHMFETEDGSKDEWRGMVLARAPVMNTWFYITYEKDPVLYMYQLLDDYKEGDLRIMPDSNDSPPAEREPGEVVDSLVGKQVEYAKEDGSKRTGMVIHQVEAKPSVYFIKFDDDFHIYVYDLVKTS
UniProt P19623: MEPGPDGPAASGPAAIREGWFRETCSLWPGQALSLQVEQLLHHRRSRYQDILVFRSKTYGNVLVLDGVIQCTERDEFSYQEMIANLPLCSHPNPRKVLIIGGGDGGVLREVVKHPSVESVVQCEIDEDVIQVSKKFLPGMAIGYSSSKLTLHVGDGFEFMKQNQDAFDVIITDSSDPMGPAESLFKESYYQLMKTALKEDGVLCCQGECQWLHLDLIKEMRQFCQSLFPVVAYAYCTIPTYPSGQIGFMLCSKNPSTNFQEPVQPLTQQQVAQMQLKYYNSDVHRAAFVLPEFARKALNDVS
UniProt Q15831: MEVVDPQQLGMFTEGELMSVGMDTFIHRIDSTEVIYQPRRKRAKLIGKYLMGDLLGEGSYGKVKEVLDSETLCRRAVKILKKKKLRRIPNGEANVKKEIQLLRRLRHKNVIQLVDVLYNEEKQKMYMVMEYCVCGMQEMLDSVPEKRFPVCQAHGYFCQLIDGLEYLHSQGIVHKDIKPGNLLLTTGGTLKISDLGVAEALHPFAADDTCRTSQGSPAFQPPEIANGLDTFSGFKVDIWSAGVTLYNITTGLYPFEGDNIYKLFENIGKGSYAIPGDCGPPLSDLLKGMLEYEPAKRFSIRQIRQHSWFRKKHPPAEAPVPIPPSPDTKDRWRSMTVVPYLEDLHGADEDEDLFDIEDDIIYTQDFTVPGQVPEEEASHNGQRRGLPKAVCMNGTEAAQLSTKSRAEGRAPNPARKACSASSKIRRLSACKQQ
UniProt Q8N3U4: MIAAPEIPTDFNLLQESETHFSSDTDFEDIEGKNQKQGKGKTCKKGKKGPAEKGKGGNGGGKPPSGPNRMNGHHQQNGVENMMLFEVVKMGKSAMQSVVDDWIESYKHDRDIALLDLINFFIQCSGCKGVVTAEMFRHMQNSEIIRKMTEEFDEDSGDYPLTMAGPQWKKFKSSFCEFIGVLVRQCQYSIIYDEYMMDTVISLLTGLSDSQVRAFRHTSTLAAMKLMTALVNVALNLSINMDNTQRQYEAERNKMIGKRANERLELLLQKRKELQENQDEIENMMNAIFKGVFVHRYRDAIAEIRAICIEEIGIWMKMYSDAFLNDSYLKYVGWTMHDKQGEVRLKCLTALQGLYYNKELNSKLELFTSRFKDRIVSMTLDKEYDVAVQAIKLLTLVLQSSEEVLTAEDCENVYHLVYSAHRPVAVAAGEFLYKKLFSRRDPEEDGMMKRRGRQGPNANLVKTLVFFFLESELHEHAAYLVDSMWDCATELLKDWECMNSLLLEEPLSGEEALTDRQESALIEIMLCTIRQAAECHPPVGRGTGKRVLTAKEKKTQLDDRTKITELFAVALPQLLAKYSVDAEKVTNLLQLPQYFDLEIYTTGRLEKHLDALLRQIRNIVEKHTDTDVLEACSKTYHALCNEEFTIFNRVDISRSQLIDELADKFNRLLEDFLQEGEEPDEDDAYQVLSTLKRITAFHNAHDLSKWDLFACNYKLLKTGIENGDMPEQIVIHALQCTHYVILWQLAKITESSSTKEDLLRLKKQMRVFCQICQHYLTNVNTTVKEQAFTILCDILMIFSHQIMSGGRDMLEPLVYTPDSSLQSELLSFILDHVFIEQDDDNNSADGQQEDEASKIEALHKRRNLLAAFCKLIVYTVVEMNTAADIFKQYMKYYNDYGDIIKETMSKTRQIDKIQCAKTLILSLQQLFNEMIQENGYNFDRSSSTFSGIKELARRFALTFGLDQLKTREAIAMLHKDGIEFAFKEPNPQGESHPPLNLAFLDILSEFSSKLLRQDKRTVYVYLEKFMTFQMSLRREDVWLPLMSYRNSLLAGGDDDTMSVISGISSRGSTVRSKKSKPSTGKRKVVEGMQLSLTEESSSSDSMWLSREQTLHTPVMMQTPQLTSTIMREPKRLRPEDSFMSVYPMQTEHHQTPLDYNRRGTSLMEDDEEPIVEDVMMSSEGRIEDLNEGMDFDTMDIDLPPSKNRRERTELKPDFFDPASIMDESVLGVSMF
UniProt P31948, whole entry, looked up: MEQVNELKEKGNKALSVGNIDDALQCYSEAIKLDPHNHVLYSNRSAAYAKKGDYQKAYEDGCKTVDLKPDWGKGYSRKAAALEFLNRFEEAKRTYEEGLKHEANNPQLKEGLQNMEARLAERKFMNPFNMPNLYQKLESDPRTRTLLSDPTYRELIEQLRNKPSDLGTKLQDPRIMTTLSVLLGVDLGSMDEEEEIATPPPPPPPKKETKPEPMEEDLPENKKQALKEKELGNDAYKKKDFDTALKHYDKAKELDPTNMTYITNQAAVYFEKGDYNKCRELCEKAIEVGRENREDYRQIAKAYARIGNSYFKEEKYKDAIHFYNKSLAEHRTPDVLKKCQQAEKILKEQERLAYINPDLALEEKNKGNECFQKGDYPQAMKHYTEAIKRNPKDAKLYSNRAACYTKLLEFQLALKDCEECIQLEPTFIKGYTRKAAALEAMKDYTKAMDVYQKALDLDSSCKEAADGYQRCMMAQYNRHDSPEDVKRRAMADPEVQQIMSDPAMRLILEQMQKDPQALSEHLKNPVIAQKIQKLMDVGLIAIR
UniProt P42224: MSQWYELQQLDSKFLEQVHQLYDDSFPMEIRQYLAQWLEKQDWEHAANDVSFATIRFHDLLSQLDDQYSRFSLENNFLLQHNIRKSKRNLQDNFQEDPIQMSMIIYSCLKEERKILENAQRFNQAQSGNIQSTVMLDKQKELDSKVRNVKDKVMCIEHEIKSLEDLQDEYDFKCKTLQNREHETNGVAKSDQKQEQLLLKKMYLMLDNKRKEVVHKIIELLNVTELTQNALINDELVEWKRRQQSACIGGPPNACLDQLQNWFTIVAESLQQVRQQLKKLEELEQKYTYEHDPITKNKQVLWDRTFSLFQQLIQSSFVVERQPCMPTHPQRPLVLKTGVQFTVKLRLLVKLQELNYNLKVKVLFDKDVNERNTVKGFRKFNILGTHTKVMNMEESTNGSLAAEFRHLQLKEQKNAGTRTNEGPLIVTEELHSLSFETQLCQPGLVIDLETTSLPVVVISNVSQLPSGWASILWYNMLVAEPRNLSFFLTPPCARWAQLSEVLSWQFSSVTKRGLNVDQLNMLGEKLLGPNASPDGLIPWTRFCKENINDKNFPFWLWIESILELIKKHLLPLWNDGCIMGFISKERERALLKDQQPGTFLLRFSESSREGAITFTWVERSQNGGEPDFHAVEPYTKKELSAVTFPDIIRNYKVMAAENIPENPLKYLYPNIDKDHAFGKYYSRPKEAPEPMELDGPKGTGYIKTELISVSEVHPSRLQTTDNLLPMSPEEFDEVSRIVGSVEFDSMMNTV
UniProt Q04837: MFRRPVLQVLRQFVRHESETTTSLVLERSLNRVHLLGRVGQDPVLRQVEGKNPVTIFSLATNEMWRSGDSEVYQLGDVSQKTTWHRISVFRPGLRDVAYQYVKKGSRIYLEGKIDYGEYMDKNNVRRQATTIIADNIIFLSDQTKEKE
UniProt P37108: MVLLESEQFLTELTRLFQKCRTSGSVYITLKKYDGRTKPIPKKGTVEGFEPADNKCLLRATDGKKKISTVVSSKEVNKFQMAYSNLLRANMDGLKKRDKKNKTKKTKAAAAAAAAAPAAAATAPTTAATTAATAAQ
UniProt Q9HBM1: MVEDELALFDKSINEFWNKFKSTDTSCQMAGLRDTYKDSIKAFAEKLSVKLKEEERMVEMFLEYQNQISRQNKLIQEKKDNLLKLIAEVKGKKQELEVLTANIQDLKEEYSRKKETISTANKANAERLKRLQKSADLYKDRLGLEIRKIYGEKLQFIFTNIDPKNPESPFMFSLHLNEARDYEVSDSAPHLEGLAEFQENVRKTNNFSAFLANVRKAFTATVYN

Compound in this assay: CC1=C(C2=C(C=C1)C(=O)C3=CC=CC=C3N2CCCN)C
Briefly: log2 fold change, soluble protein after heating vs DMSO (PISA); higher = thermal stabilisation; K562 cells, 10 uM, 30 min; active = over 0.2 and 3.5 SD of the protein, either way, in both replicates (recomputed). The procedure, abridged:
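K562 cells at 2×10^6 cells/mL were exposed to 10 μM compound for 30 min, then aliquots were heated for 3 min across 48°C-58°C, pooled, and extracted in PBS containing 0.5% NP-40 at 4°C. The supernatant after 21,000xg for 90 min was taken as soluble protein and measured by TMTpro 16plex LC-MS/MS with channel sums equalised. Thermal stability is reported relative to control samples, with values from duplicates. Fold changes are given on a log2 scale.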
As to SRSF5 (UniProt Q13243), the log2 fold change was inactive: -0.457.

As to SPRY4 (UniProt Q9C004), the log2 fold change was inactive: -0.02.

In the case of SRRT (UniProt Q9BXP5), the log2 fold change is inactive: 0.148.

On to SPCS3 (UniProt P61009), for which the log2 fold change is inactive: -0.008.

For SPHK1 isoform 2 (UniProt Q9NYA1), the log2 fold change was inactive: 0.02.

On to SPRYD4 (UniProt Q8WW59), for which the log2 fold change is inactive: 0.033.

Take ST6GALNAC1 (UniProt Q9NSC7): the log2 fold change was inactive: -0.057.

Consider SRR (UniProt Q9GZT4), for which the log2 fold change was inactive: 0.138.

Regarding SPTAN1 isoform 2 (UniProt Q13813), the log2 fold change was inactive: 0.009.

Consider SSR1 (UniProt P43307), for which the log2 fold change is inactive: 0.008.

Turning to SPRYD7 (UniProt Q5W111), the log2 fold change is inactive: -0.01.

SPCS1, A0A5F9YFS9: the log2 fold change is inactive: 0.086.

For STAU1 (UniProt O95793), the log2 fold change was inactive: -0.581.

In the case of SPN (UniProt P16150), the log2 fold change was inactive: 0.012.

As for SPIN1 (UniProt Q9Y657), the log2 fold change is inactive: 0.083.

Turning to SRM (UniProt P19623), the log2 fold change is inactive: 0.048.

As to SQLE (UniProt Q14534), the log2 fold change was inactive: -0.035.

As to STK11 (UniProt Q15831), the log2 fold change is inactive: 0.003.

As to SPTA1 (UniProt P02549), the log2 fold change is inactive: -0.096.

As to SRA1 (UniProt Q9HD15), the log2 fold change is inactive: 0.034.

Consider STAM (UniProt Q92783), for which the log2 fold change is inactive: -0.051.

Consider STAG2 (UniProt Q8N3U4), for which the log2 fold change is inactive: -0.1.

Turning to STIP1 isoform 2 (UniProt P31948), the log2 fold change was inactive: 0.01.

As to STAT1 (UniProt P42224), the log2 fold change was inactive: -0.06.

Take SPARC (UniProt P09486): the log2 fold change is inactive: -0.089.

Take SRPK1 (UniProt Q96SB4): the log2 fold change was inactive: -0.331.

As for SSBP1 (UniProt Q04837), the log2 fold change is inactive: 0.075.

Regarding SRP14 (UniProt P37108), the log2 fold change is inactive: -0.341.

For ST7 (UniProt Q9NRC1), the log2 fold change was inactive: 0.098.

Take STAMBP (UniProt O95630): the log2 fold change was inactive: 0.021.

With SPECC1L (UniProt Q69YQ0), the log2 fold change is inactive: 0.03.

As for SPTB isoform 2 (UniProt P11277), the log2 fold change is inactive: -0.029.

In the case of SPTBN2 (UniProt O15020), the log2 fold change is inactive: -0.005.

Turning to SRP54 (UniProt P61011), the log2 fold change was inactive: 0.061.

Regarding SPC25 (UniProt Q9HBM1), the log2 fold change is inactive: -0.085.

Take SPATA5L1 (UniProt Q9BVQ7): the log2 fold change is inactive: 0.14.

On to STAG1 (UniProt Q8WVM7), for which the log2 fold change is inactive: -0.115.
